Results: article PMC5996148
Several values for one entry are separate records, joined by “and”; a condition that tells them apart may be missing. Equal entries are not always repeated. This is one part of the list. For some assays here: Construct or isoform of the protein are uncertain.

Sequences of proteins named here, by UniProt entry; tags and fusion partners are left off. A change or cut given only in a name is not applied to a line headed by its entry.
UniProt Q9Y3E1: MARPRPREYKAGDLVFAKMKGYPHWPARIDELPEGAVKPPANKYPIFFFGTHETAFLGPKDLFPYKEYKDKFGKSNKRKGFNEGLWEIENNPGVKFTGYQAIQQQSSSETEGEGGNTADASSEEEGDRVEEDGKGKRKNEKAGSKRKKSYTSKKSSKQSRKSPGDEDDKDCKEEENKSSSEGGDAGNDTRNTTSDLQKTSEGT
UniProt P49773: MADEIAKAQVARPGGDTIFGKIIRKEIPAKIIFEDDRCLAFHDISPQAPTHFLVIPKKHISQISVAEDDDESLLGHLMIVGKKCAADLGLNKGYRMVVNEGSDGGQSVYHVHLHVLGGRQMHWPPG

Experiments:
Assay in all cases: protein microarray (ProtoArray v5.0), streptavidin-Alexa Fluor 647
Settings in all cases: 3'-biotin; 20 mM Tris (pH 7.5), 5 mM MgCl2, 100 mM KCl, 0.1% Tween-20, A/T-rich and random oligonucleotide blockers; temperature not stated; high values mean tight binding
[1] = test system: Guanylate cyclase activator 2B (human)
[2] = test system: HAAO (human)
[3] = test system: HAS3 (human)
[4] = test system: HAVCR2 (human)
[5] = test system: HAX1 (human)
[6] = test system: HBG1 (human)
[7] = test system: HBG2 (human)
[8] = biological target: HBS1L (UniProt Q9Y450)
[9] = test system: HBZ (human)
[10] = test system: HCCS (human)
[11] = test system: HCG3 (human)
[12] = biological target: HDGFRP3 (UniProt Q9Y3E1)
[13] = test system: HDHD3 (human)
[14] = test system: HEBP1 (human)
[15] = test system: HEL308 (human)
[16] = test system: HERPUD1 (human)
[17] = test system: HFE (human)
[18] = test system: HGS (human)
[19] = biological target: HINT1 (UniProt P49773)
[20] = biological target: HIST2H2AC (UniProt Q16777)

Q: “GGGGACAGGGGTATGGGGAGGGG [G4-3 biotinylated (CtG)]” was tested. Which binding signal [1] did it give?
A: -0.321 z-score

Q: What about the binding signal [2] of the same sequence?
A: -0.333 z-score

Q: And the binding signal [3]?
A: -0.313 z-score

Q: What about the binding signal [4] of the same sequence?
A: -0.336 z-score

Q: And the binding signal [5]?
A: -0.325 z-score

Q: What about the binding signal [6] of the same sequence?
A: -0.321 z-score and -0.342 z-score

Q: What about the binding signal [7] of the same sequence?
A: -0.302 z-score

Q: And the binding signal [8]?
A: 5.55 z-score

Q: And the binding signal [9]?
A: -0.341 z-score

Q: And the binding signal [10]?
A: -0.322 z-score

Q: And the binding signal [11]?
A: -0.331 z-score

Q: What about the binding signal [12] of the same sequence?
A: 5.68 z-score

Q: What about the binding signal [13] of the same sequence?
A: -0.321 z-score

Q: What about the binding signal [14] of the same sequence?
A: -0.306 z-score

Q: And the binding signal [15]?
A: -0.327 z-score

Q: What about the binding signal [16] of the same sequence?
A: -0.316 z-score

Q: What about the binding signal [17] of the same sequence?
A: -0.331 z-score

Q: And the binding signal [18]?
A: -0.324 z-score

Q: And the binding signal [19]?
A: -0.329 z-score

Q: What about the binding signal [20] of the same sequence?
A: 3.91 z-score
